{
  "sequences": {"note": "By UniProt entry, the sequences of proteins in these tests, tags left out. Where a name states a change or a piece, a line headed by the entry shows the natural chain unless it says otherwise.", "UniProt P00390": "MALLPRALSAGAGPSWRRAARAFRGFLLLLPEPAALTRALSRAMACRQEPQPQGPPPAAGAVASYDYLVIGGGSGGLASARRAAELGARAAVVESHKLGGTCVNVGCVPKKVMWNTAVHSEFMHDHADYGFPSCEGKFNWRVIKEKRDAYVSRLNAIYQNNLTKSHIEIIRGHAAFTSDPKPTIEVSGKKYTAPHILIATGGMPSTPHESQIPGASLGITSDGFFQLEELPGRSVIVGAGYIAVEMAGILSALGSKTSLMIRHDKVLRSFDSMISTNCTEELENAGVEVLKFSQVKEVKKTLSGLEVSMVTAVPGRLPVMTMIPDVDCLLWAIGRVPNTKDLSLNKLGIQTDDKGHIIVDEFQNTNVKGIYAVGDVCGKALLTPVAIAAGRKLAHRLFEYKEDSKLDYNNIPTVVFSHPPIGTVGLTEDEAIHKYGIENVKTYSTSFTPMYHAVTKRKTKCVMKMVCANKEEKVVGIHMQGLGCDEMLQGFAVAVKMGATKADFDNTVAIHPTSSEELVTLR", "UniProt Q68CZ6": "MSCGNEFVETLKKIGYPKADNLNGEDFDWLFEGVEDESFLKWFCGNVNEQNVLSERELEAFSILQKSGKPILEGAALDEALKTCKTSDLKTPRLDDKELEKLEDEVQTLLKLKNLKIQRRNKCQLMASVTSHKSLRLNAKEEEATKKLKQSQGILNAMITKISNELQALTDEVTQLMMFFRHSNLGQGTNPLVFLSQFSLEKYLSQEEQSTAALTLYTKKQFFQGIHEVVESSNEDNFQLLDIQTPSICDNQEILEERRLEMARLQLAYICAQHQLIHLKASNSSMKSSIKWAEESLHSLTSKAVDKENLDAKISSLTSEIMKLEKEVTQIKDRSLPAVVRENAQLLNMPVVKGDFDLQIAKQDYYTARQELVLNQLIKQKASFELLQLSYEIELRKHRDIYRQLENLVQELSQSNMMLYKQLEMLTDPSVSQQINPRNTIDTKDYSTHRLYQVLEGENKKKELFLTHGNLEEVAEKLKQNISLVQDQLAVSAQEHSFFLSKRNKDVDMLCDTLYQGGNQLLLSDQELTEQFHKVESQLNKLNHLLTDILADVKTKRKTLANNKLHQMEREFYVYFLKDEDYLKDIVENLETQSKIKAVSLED", "UniProt P51610": "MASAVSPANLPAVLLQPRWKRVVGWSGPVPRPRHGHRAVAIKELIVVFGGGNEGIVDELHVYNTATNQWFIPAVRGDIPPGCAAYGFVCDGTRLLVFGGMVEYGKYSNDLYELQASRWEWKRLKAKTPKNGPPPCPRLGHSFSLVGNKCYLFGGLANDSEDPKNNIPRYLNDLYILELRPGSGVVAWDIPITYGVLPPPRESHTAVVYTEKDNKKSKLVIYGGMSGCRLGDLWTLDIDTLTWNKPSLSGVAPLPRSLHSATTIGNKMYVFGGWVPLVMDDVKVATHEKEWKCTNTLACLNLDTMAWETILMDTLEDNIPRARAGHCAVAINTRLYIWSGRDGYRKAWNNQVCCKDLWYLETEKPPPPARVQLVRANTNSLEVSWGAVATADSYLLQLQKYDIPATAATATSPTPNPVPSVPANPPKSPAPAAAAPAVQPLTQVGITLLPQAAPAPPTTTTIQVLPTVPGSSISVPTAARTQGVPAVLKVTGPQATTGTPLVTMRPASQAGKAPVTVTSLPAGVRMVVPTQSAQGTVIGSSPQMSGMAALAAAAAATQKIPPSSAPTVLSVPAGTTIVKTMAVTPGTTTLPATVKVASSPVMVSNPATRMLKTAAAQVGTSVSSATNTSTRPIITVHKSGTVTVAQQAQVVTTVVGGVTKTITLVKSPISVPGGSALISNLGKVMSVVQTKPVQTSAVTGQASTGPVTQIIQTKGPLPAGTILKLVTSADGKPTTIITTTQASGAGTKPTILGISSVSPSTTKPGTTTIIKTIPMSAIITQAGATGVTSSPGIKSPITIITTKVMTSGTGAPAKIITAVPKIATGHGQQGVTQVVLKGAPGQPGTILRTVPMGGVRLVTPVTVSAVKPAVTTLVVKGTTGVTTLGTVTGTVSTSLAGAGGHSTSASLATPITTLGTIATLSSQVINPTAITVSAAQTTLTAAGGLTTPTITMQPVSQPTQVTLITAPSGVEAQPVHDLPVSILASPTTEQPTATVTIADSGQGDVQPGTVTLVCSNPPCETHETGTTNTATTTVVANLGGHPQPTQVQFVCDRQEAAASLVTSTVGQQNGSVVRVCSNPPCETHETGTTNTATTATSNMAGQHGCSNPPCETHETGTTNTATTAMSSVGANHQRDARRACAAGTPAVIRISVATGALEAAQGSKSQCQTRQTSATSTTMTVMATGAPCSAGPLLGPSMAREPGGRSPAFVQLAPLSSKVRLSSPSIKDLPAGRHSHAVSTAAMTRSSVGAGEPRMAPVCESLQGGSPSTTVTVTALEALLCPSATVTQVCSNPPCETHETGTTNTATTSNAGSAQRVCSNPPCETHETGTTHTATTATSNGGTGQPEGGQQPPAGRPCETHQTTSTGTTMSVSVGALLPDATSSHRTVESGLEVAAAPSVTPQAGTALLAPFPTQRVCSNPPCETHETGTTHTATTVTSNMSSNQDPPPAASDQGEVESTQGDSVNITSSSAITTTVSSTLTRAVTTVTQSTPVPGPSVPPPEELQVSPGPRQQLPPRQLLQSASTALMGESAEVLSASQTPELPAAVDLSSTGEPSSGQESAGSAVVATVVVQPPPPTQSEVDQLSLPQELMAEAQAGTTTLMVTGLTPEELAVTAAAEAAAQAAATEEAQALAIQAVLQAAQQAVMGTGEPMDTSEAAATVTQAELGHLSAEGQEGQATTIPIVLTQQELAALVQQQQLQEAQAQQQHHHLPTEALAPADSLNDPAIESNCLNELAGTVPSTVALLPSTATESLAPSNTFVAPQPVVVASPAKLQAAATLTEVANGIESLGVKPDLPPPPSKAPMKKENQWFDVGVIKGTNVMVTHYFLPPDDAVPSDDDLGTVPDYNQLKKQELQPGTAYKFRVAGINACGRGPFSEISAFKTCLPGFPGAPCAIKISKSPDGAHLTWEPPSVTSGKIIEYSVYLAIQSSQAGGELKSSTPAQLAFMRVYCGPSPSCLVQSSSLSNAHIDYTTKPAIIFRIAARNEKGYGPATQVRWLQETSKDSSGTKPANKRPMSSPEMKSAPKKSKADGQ", "UniProt Q9P2D3": "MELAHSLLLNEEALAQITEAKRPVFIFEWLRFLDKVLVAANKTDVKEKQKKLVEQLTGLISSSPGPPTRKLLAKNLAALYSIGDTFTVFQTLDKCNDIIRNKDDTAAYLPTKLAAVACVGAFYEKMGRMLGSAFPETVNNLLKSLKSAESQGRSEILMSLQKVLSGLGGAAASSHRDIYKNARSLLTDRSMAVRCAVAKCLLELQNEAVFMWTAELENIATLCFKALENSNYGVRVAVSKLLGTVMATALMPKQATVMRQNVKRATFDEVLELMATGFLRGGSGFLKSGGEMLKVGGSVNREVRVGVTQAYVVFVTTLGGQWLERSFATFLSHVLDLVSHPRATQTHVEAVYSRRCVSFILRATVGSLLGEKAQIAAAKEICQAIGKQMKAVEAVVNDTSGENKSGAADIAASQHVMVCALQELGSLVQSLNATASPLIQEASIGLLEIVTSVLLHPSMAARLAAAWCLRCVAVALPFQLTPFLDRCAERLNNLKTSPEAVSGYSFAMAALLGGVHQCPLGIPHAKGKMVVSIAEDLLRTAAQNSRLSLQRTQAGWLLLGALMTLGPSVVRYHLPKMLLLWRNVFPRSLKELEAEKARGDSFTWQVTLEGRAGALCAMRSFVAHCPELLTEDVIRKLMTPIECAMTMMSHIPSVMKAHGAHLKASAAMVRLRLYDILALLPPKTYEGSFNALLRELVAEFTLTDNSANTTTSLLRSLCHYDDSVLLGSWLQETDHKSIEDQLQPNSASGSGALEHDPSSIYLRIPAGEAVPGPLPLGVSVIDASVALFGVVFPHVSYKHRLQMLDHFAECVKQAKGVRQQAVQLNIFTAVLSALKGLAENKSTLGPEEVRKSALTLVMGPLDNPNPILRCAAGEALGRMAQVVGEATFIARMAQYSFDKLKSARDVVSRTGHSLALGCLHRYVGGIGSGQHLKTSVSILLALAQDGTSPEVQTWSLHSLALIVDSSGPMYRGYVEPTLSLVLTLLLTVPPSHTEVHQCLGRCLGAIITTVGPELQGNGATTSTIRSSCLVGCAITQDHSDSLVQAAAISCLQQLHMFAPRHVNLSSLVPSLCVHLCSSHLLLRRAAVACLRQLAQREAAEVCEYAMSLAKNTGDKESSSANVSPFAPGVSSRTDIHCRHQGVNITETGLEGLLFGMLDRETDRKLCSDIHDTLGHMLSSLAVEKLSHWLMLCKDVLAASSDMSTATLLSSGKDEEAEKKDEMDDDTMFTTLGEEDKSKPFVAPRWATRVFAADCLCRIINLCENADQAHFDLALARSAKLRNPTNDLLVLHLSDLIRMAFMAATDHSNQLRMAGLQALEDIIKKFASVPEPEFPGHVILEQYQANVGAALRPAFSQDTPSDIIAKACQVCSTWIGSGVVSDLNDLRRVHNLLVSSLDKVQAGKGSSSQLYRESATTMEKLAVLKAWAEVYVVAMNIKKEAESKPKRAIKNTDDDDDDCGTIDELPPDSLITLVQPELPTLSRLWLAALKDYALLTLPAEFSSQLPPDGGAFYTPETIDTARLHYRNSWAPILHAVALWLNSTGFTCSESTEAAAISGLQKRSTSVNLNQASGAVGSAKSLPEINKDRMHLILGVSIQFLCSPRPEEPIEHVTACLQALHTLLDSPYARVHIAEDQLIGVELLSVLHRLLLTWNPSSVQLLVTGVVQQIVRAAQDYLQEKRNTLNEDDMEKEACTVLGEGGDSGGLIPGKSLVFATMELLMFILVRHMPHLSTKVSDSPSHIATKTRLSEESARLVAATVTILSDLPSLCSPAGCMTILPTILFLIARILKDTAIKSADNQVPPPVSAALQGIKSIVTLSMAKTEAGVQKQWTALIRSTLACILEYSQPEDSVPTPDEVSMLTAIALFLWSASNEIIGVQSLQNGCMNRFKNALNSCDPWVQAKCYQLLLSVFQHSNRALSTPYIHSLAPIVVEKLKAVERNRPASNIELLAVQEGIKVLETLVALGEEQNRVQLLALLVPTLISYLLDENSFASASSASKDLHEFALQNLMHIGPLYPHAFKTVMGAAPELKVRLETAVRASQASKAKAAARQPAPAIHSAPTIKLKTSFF", "UniProt O00178": "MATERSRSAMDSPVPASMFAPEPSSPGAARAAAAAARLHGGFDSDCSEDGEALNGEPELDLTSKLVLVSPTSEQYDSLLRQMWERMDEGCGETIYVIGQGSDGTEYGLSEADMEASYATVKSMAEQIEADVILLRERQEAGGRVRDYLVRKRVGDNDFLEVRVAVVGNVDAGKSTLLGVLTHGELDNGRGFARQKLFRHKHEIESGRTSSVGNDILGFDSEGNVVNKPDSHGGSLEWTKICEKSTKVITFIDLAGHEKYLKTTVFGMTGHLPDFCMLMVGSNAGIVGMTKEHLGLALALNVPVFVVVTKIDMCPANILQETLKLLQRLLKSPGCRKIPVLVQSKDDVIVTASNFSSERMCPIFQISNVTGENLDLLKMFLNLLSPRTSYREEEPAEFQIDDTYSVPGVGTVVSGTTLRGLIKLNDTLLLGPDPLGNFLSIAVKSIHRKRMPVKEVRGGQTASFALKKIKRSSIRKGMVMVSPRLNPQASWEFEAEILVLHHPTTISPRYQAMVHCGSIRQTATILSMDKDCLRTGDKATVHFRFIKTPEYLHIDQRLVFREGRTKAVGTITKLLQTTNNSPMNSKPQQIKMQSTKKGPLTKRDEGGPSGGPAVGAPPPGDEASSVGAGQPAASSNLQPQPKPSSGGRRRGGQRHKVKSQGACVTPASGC", "UniProt P02724": "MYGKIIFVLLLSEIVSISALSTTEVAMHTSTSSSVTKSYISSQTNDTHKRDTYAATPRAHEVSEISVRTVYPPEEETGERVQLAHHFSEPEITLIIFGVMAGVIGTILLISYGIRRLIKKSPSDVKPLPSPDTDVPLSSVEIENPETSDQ", "UniProt P55084": "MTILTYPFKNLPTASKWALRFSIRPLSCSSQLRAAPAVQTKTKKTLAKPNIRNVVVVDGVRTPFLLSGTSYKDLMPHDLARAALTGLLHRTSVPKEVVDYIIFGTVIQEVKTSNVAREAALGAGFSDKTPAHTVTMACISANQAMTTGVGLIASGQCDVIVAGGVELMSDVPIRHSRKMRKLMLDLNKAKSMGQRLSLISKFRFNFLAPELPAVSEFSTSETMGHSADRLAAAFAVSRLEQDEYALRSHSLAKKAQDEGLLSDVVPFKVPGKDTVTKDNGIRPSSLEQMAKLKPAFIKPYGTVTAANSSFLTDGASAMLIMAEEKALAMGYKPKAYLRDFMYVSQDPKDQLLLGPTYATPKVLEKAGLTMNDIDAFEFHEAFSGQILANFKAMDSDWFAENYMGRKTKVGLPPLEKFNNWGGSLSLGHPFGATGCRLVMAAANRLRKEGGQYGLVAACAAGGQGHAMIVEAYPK"},
  "source": "the supplement of paper PMC10849652",
  "note": "This is one part of the list.",
  "data": [
    {"compound": "O=C(CCCCCCC(=O)Nc1ccccc1)NO [vorinostat]", "test": "log2 fold change, soluble protein after heating vs DMSO (PISA); higher = thermal stabilisation; K562 lysate, 10 uM; active = over 0.2 and 3.5 SD of the protein, either way, in both replicates (recomputed)", "procedure,_shortened": "(§1)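 To prepare the extract, K562 pellets were dounce-homogenised in PBS pH 7.4 with 1 mM MgCl2, giving crude material at 1 mg/mL protein. This was treated with 10 μM compound for 30 min, then heated in aliquots for 3 min over 48°C-58°C before pooling and addition of NP-40 to 0.5% at 4°C. Centrifugation at 21,000xg for 90 min left soluble protein in the supernatant, which TMTpro 16plex LC-MS/MS quantified with equalised channel sums. Results are log-two fold changes in thermal stability compared with solvent controls, from duplicates.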", "values": [
      {"target": "HBA1 (UniProt P69905)", "log2 fold change": "inactive: 0.141"},
      {"target": "GTF3C3 (UniProt Q9Y5Q9)", "log2 fold change": "active: -0.291"},
      {"target": "GSR isoform 5 (UniProt P00390)", "log2 fold change": "inactive: 0.16"},
      {"target": "HDAC6 (UniProt Q9UBN7)", "log2 fold change": "active: 0.513"},
      {"target": "GRHPR (UniProt Q9UBQ7)", "log2 fold change": "inactive: -0.163"},
      {"target": "HAUS3 (UniProt Q68CZ6)", "log2 fold change": "active: -0.618"},
      {"target": "GSTM3 (UniProt P21266)", "log2 fold change": "inactive: -0.194"},
      {"target": "GTPBP4 (UniProt Q9BZE4)", "log2 fold change": "inactive: -0.004"},
      {"target": "HDAC3 (UniProt O15379)", "log2 fold change": "active: -0.264"},
      {"target": "HCFC1 (UniProt P51610)", "log2 fold change": "inactive: 0.137"},
      {"target": "GPT2 (UniProt Q8TD30)", "log2 fold change": "inactive: -0.254"},
      {"target": "GTF2F2 (UniProt P13984)", "log2 fold change": "inactive: 0.108"},
      {"target": "GTSF1 (UniProt Q8WW33)", "log2 fold change": "inactive: -0.003"},
      {"target": "GTF2H4 (UniProt Q92759)", "log2 fold change": "active: -0.24"}
    ]},
    {"compound": "O=C(O)c1ccc2c(c1)nc(Nc1cccc(Cl)c1)c1ccncc12 [silmitasertib]", "test": "log2 fold change, soluble protein after heating vs DMSO (PISA); higher = thermal stabilisation; K562 lysate, 10 uM; active = over 0.2 and 3.5 SD of the protein, either way, in both replicates (recomputed)", "procedure,_shortened": "as §1", "values": [
      {"target": "HEATR5B (UniProt Q9P2D3)", "log2 fold change": "inactive: 0.014"},
      {"target": "HAUS5 (UniProt O94927)", "log2 fold change": "inactive: 0.045"},
      {"target": "HEATR3 (UniProt Q7Z4Q2)", "log2 fold change": "inactive: 0.013"},
      {"target": "GSK3B isoform 2 (UniProt P49841)", "log2 fold change": "inactive: 0.421"},
      {"target": "GTPBP1 (UniProt O00178)", "log2 fold change": "inactive: 0.019"},
      {"target": "GRAP2 (UniProt O75791)", "log2 fold change": "inactive: 0.025"},
      {"target": "GTF2H2 (UniProt Q13888)", "log2 fold change": "inactive: 0.041"},
      {"target": "GSS (UniProt P48637)", "log2 fold change": "inactive: -0.003"},
      {"target": "GTF2H1 (UniProt P32780)", "log2 fold change": "inactive: 0"},
      {"target": "HBS1L isoform 2 (UniProt Q9Y450)", "log2 fold change": "inactive: 0.056"},
      {"target": "GRK5 (UniProt P34947)", "log2 fold change": "inactive: 0.499"},
      {"target": "GRB2 (UniProt P62993)", "log2 fold change": "inactive: -0.022"},
      {"target": "H1-2 (UniProt P16403)", "log2 fold change": "inactive: -0.037"},
      {"target": "H3-3A (UniProt P84243)", "log2 fold change": "inactive: 0"},
      {"target": "GYPA (UniProt P02724)", "log2 fold change": "inactive: -0.097"},
      {"target": "HAUS8 (UniProt Q9BT25)", "log2 fold change": "inactive: 0.022"},
      {"target": "HBE1 (UniProt P02100)", "log2 fold change": "inactive: -0.044"},
      {"target": "HDAC5 isoform 3 (UniProt Q9UQL6)", "log2 fold change": "inactive: -0.023"},
      {"target": "HAUS4 (UniProt Q9H6D7)", "log2 fold change": "inactive: 0.045"},
      {"target": "H1FX (UniProt Q92522)", "log2 fold change": "inactive: 0"},
      {"target": "HADHB (UniProt P55084)", "log2 fold change": "inactive: -0.033"},
      {"target": "GSKIP (UniProt Q9P0R6)", "log2 fold change": "inactive: 0.023"},
      {"target": "GTF2E1 (UniProt P29083)", "log2 fold change": "inactive: -0.007"},
      {"target": "HBA1 (UniProt P69905)", "log2 fold change": "inactive: -0.061"},
      {"target": "GTF3C3 (UniProt Q9Y5Q9)", "log2 fold change": "inactive: 0.018"},
      {"target": "GSR isoform 5 (UniProt P00390)", "log2 fold change": "inactive: -0.031"},
      {"target": "HDAC6 (UniProt Q9UBN7)", "log2 fold change": "inactive: 0.016"},
      {"target": "GRHPR (UniProt Q9UBQ7)", "log2 fold change": "inactive: -0.016"},
      {"target": "HAUS3 (UniProt Q68CZ6)", "log2 fold change": "inactive: -0.009"},
      {"target": "GSTM3 (UniProt P21266)", "log2 fold change": "inactive: 0.068"},
      {"target": "GTPBP4 (UniProt Q9BZE4)", "log2 fold change": "inactive: 0.018"},
      {"target": "HDAC3 (UniProt O15379)", "log2 fold change": "inactive: -0.027"},
      {"target": "HCFC1 (UniProt P51610)", "log2 fold change": "inactive: -0.508"},
      {"target": "GPT2 (UniProt Q8TD30)", "log2 fold change": "inactive: 0.08"},
      {"target": "GTF2F2 (UniProt P13984)", "log2 fold change": "inactive: -0.019"},
      {"target": "GTSF1 (UniProt Q8WW33)", "log2 fold change": "inactive: -0.008"},
      {"target": "GTF2H4 (UniProt Q92759)", "log2 fold change": "inactive: -0.021"}
    ]}
  ]
}
